According to PubChem BioAssay AID720591 (Broad Institute, 2013):
The whole screen tested about 1,200 compounds, of which about 60 (5%) were called active. Not shown: some 1% with an inconclusive outcome.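 The calls were made as follows: active = Decreasing signal and fitted IC50 at most twice the top valid tested dose; inconclusive = Bad fit or a level curve showing 30 to 70% inhibition; inactive = the rest.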 Some of the results follow. Results with a measured potency or affinity are listed apart.

By UniProt entry, the sequences of proteins in these tests, tags left out. Where a name states a change or a piece, a line headed by the entry shows the natural chain unless it says otherwise.
UniProt Q9NXA8: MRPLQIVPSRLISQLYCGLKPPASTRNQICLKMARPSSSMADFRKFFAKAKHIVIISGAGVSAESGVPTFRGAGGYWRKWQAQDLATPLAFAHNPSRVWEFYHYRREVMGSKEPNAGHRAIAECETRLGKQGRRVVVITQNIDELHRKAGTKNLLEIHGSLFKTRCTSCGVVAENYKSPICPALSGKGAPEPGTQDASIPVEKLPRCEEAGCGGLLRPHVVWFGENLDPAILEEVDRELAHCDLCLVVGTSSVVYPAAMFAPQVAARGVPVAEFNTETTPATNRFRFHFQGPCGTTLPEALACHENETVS

Target: NAD-dependent protein deacylase sirtuin-5, mitochondrial (Homo sapiens) (UniProt Q9NXA8)
Experiment: SIRT5 desuccinylase inhibitors, dose response, biochemical, fluorescence imaging, cherry-pick, set 5 (AID 720591);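 also: 0% = median of neutral control wells and -100% = median of positive control wells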
Conditions: Purified SirT5, succinyl-peptide AMC, trypsin-coupled fluorescence; at 15 µM (top of the series) unless noted

Activity change, negative = inhibition, inactive:
CS(=O)(=O)N(CC(=O)N1CCCCCC1)c1cccc(F)c1 -22.2%, CCCCOc1ccc(C(=O)Nc2ccc(CN3CCOCC3)cc2)cc1 -16.6%, N#CCCN(C(=O)COC(=O)c1ccc2c(c1)NC(=O)CS2)c1ccc2c(c1)OCCO2 -30.3%, Cc1ccc(S(=O)(=O)NC(=O)Nc2cccc(C)n2)cc1 -0.691%, Cc1cc(S(=O)(=O)N2CCN=C2c2ccccc2)c(C)cc1Cl 9.09%, COc1cc(C(C)=O)ccc1OCc1cn(CC(=O)c2ccc(O)cc2)nn1 6.41%, CCOC(=O)C1=CN(Cc2cccc(Br)c2)S(=O)(=O)N(C)C1C (stereo not given) 34.1%, COc1ccc(-c2ocnc2C(=O)Nc2ccc3c(c2)CCC3)cc1 -32.4%, Cc1ccc(C(=O)OC(C)CN2CCN(C)CC2)cc1 (stereo not given) -19.7%, NC(=O)CSc1nc2ccccc2n1-c1ccccc1 2.91%, COc1ccc(CNC2CC(C)N(C)CC2C)cc1OC (stereo not given) 7.35%, O=C(CSc1nnc(COc2ccccc2)o1)N1CCOCC1 -0.134%, O=C(NNC(=O)c1cccs1)c1ccncc1 -19.9%, Cc1[nH]c2ccccc2c1C(=O)C(=O)N1CCN(c2ccccc2Cl)CC1 7.35%, CCc1c(C)nc2ccc(Br)cc2c1SCCC#N -8.37%, c1ccc(C[C@H]2CN=C(Nc3ccccc3)N2CC2CCCC2)cc1 22.7%, COC(=O)c1cccc(NC(=O)CSc2nnc(COc3ccc(C#N)cc3)n2-c2ccccc2)c1 -25.5%, C=CC[C@@H](CC(=O)OC(C)(C)C)C(=O)OC[C@@H]1CCCN1C(=O)[C@@H](CC=C)CC(=O)N[C@@H](CO)Cc1ccccc1 -18.7%, C[C@H](CO)N1C[C@H](C)[C@@H](CN(C)C(=O)Nc2ccccc2)Oc2c(NS(=O)(=O)c3cccs3)cccc2C1=O -31%, CC(C)NC(=O)CC1C(=O)N(Cc2ccccc2)C(C)c2nc3ccccc3n21 (stereo not given) -21.3%, CCN(CC)CCN1C(=O)C2C(C(=O)Nc3cccc(C)c3)C3C=CC2(O3)C1C(=O)NC1CCCC(C)C1C (stereo not given) 26.4%, O=C(c1cccc(S(=O)(=O)N2CCCC2)c1)N(Cc1ccco1)C1CCS(=O)(=O)C1 (stereo not given) -7.52%, CC1C(=O)N2CCCc3cc(S(=O)(=O)N4CCCCC4)cc1c32 (stereo not given) 10.4%, CCCNC(=O)C1(C)CCCN(Cc2cccc(Oc3ccccc3)c2)C1 (stereo not given) 20.7%, Cc1cc(C)n(C(=O)CNC(=O)c2cccs2)n1 0.332%, COc1cccc2c(=O)n(CC(=O)N3CCCc4ccccc43)ccc12 -27.1%, O=C(NC1CCCCC1)c1ccc(S(=O)(=O)c2ccccc2)cc1 -29.3%, Cc1csc(N2CCCC2=O)n1 38.1%, CCOC(=O)c1cnc2nc(C)nn2c1N -12.8%, CC(=O)c1cn(CC(=O)Nc2cccc(C)c2C)c2ccccc12 -1.97%, CCOC(=O)C1=CCN(S(=O)(=O)c2ccccc2Br)C1c1ccc(Cl)c(Cl)c1 (stereo not given) -30.7%, CN1C(=O)[C@H]2[C@@H](C3CC3)N3C(=O)CN(CCO)C(=O)[C@@]3(Cc3ccccc3)[C@H]2C1=O -16.4%, Cc1ccc(S(=O)(=O)N2CCC(=O)N([C@H](COCc3cccc(Cl)c3)Cc3ccccc3)CC2)cc1 -25%, CC(=O)Nc1ccc(S(=O)(=O)Nc2ccc(-n3cnnn3)cc2)cc1 -11.7%, O=C(O)CSCC(=O)Nc1cccc(C(F)(F)F)c1 -1.48%, CCSc1nnc(NC(=O)Cc2ccc(OC)cc2)s1 -29.4%, Cn1cc(CCC(=O)N2CCCC(Nc3ccc(F)cc3)C2)cn1 (stereo not given) -28.1%, COc1ccc(-c2csc3nc(C(C)C)oc(=O)c23)cc1OC -30.7%, O=C(CSc1ccc(-c2ccccc2)nn1)N1CCN(c2ccccc2)CC1 8.7%, O=C(NCc1ccccc1)C(c1ccco1)N(C(=O)c1csnn1)c1ccccc1 (stereo not given) 11.3%, O=C(Nc1nnc(C2CC2)s1)c1ccccn1 -17.5%, COc1ccccc1C1NC(=O)NC(C)=C1C(=O)OCc1ccccc1 (stereo not given) -16.6%, CCN1CCc2c(sc(NC(=O)c3ccc(S(=O)(=O)N(C)CC4CCCO4)cc3)c2C(N)=O)C1 (stereo not given) 7.35%, Cc1cnc(NC(=O)c2ccco2)s1 10.2%, O=C(COc1ccc(-n2ccnc2)cc1)Nc1cccc(Cl)c1 1.48%, Cc1ccc(S(=O)(=O)Nc2ccc(N(C)C)cc2)cc1 -8.19%, C[C@@H]1CN([C@@H](C)CO)C(=O)CCCn2nncc2CO[C@H]1CN(C)S(=O)(=O)c1ccc2c(c1)OCCCO2 20.3%, COC(=O)c1c(NC(=O)C2(C)Cc3ccccc3C(=O)O2)sc2c1CCCC2 (stereo not given) -28%, CCCc1cc(=O)oc2c(C)c(OCC(=O)NCCN3CCOCC3)ccc12 -21%, COc1ccc(C(=O)N2CCN(S(=O)(=O)c3ccc(C)cc3)CC2)cc1S(=O)(=O)N1CCOCC1 26%, COc1ccc(C(C)=O)cc1CSc1ccc(S(=O)(=O)N2CCOCC2)cn1 -29.1%, CC1(C)CC(=O)c2cc(C(=O)NNc3ccccc3)c(=O)n(-c3ccccc3)c2C1 6.99%, Cc1ccc(S(=O)(=O)N2CC3CCCC2C3)cc1 (stereo not given) 20.3%, CCn1c(C)c(C)c2cc(C(=O)NC3CCCCCC3)ccc21 -12.5%, C=CC[C@H](CC(=O)N(CCO)Cc1ccccc1)C(=O)N[C@@H](COC(=O)[C@H](CC=C)CC(=O)OC(C)(C)C)Cc1c[nH]c2ccccc12 17%, Cc1ccccc1NC(=O)C1CC(=O)n2ncnc2N1 (stereo not given) 14.6%, CC1(C(=O)NCc2cc(F)cc(C(F)(F)F)c2)C=CC2(CCCCC2)N1C(=O)c1ccccc1 (stereo not given) -7.85%, O=C(Nc1cccc(Br)c1)c1ccc(CSc2ccccc2)cc1 -25.6%, c1ccc(COc2cccc(-c3cc4nc(NCCc5ccncc5)ccn4n3)c2)cc1 -25.8%, O=C(COc1ccccc1)NCC(c1ccco1)N1CCN(c2ccc(F)cc2)CC1 (stereo not given) 13.8%, CCC(=O)Nc1ccc2c(c1)OC[C@@H](C)N(Cc1ccccc1F)C[C@@H](C)[C@@H](OC)CN(C)C2=O -34.7%, C[C@H](CO)N1C[C@H](C)[C@@H](CN(C)S(=O)(=O)c2ccc3ccccc3c2)OCc2cnnn2CCCC1=O 21.8%, CN(CCCn1ccc(NC(=O)OCc2ccccc2)nc1=O)Cc1ccco1 12.5%, O=C(C[C@H]1CC[C@@H]2[C@H](COC[C@H](O)CN2Cc2cccc(F)c2)O1)NCc1cccc(F)c1 -14.3%, CC(C)C[C@H](NC(=O)c1nc[nH]c1C(=O)NCC(=O)OCc1ccccc1)C(=O)OC(C)(C)C -34.4%, NC(=O)c1ccc(-c2c(-c3ccccc3)sc3ccccc23)cc1 -20.9%, Fc1ccc(-c2nc3ccc(Cl)cn3c2Cc2cccc(F)c2)cc1 12.6%, C[C@@H]1CN([C@@H](C)CO)C(=O)c2cc(Br)cnc2O[C@H]1CN(C)C(=O)C1CCCCC1 1.2%, Cc1ccc(C)c(S(=O)(=O)Nc2ccccc2C(=O)Nc2ccc(S(=O)(=O)Nc3ncccn3)cc2)c1 -4.98%, C[C@@H]1CCCCO[C@H](CN(C)C(=O)Nc2cccc3ccccc23)[C@@H](C)CN([C@H](C)CO)C(=O)c2cc(N(C)C)ccc2O1 -30.4%, O=S(=O)(c1ccc(F)cc1)c1nc(-c2ccco2)oc1Nc1ccccc1 23.7%, CCCN(CCC)CCN1CCN(C(=O)[C@H](CCc2ccccc2)NC(=O)[C@H]2O[C@@H](n3cnc4c(N)ncnc43)[C@H](O)[C@@H]2O)CC1 17.5%, CCOC(=O)C(C)OC(=O)C1=C(C)NC(=O)NC1c1ccc2c(c1)OCO2 (stereo not given) -3.09%, COc1ccccc1NC(=O)N1CCN(c2cccc(C(F)(F)F)c2)CC1 11.1%, Cc1cn(CC(=O)NCc2ccccc2)c(=O)[nH]c1=O 22.2%, COc1ccc(S(=O)(=O)Nc2ccc3c(c2)C(=O)N([C@@H](C)CO)C[C@H](C)[C@H](CN(C)CC2CC2)O3)cc1 0.708%, COc1ccc(-n2nnnc2SCC(=O)c2ccc3c(c2)OCCO3)c(OC)c1 8.7%, Cc1nc(N)sc1-c1csc(Nc2cccc(C(=O)O)c2)n1 -26%, COc1cc(C(=O)N2CCNCC2)cc(OC)c1OC -4.5%, Cc1ccccc1C(=O)N1CCN(c2ccc(NC(=O)c3ccccc3[N+](=O)[O-])cc2)CC1 -26.4%, Cc1ccc(NC(=O)C2CCN(C(=O)c3ccco3)CC2)cc1C -16.9%, CC(C)CCCCCCCCc1cccc(O)c1C(=O)O 2.57% [at 7.5 µM], CC(C)CN1C(=O)C(NC(=O)C2CC2)(C(F)(F)F)C2=C1CC(C)(C)CC2=O (stereo not given) -23.5%, C=C(C)Cn1c(N2CCN(c3ccc(OC)cc3)CC2)nc2c1c(=O)n(C)c(=O)n2C -9.42%, O=S(=O)(c1ccccc1)c1nc(-c2ccco2)oc1Nc1ccccc1 14.9%
